Laboratory results: the supplement of paper PMC10849652
The other results are listed elsewhere or left out.

The chains behind the UniProt entries cited, without tags or fusion partners. Where a name states a change or a piece, a line headed by the entry shows the natural chain unless it says otherwise.
UniProt Q719H9: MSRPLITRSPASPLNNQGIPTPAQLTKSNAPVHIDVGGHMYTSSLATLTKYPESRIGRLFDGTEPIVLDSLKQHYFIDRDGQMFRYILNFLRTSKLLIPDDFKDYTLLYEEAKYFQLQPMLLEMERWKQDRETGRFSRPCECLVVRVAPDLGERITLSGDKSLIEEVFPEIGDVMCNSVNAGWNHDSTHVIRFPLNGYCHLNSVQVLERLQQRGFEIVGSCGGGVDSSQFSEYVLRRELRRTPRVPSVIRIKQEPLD
UniProt Q13601: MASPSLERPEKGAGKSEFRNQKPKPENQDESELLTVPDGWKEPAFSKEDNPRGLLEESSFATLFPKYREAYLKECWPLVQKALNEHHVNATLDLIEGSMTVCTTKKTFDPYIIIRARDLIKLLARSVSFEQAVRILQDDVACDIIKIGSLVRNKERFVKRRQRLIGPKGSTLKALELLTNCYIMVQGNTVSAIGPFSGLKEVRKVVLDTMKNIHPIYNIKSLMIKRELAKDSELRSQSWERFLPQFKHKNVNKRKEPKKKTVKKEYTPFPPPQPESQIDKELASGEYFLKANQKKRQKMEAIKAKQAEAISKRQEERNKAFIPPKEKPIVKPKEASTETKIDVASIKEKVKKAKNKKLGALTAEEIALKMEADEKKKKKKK
UniProt P01591, whole entry, looked up: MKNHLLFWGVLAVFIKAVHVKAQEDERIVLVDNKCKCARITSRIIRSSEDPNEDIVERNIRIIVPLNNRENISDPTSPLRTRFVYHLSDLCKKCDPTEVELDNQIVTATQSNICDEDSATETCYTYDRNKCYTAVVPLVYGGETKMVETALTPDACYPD
UniProt Q8IZD2: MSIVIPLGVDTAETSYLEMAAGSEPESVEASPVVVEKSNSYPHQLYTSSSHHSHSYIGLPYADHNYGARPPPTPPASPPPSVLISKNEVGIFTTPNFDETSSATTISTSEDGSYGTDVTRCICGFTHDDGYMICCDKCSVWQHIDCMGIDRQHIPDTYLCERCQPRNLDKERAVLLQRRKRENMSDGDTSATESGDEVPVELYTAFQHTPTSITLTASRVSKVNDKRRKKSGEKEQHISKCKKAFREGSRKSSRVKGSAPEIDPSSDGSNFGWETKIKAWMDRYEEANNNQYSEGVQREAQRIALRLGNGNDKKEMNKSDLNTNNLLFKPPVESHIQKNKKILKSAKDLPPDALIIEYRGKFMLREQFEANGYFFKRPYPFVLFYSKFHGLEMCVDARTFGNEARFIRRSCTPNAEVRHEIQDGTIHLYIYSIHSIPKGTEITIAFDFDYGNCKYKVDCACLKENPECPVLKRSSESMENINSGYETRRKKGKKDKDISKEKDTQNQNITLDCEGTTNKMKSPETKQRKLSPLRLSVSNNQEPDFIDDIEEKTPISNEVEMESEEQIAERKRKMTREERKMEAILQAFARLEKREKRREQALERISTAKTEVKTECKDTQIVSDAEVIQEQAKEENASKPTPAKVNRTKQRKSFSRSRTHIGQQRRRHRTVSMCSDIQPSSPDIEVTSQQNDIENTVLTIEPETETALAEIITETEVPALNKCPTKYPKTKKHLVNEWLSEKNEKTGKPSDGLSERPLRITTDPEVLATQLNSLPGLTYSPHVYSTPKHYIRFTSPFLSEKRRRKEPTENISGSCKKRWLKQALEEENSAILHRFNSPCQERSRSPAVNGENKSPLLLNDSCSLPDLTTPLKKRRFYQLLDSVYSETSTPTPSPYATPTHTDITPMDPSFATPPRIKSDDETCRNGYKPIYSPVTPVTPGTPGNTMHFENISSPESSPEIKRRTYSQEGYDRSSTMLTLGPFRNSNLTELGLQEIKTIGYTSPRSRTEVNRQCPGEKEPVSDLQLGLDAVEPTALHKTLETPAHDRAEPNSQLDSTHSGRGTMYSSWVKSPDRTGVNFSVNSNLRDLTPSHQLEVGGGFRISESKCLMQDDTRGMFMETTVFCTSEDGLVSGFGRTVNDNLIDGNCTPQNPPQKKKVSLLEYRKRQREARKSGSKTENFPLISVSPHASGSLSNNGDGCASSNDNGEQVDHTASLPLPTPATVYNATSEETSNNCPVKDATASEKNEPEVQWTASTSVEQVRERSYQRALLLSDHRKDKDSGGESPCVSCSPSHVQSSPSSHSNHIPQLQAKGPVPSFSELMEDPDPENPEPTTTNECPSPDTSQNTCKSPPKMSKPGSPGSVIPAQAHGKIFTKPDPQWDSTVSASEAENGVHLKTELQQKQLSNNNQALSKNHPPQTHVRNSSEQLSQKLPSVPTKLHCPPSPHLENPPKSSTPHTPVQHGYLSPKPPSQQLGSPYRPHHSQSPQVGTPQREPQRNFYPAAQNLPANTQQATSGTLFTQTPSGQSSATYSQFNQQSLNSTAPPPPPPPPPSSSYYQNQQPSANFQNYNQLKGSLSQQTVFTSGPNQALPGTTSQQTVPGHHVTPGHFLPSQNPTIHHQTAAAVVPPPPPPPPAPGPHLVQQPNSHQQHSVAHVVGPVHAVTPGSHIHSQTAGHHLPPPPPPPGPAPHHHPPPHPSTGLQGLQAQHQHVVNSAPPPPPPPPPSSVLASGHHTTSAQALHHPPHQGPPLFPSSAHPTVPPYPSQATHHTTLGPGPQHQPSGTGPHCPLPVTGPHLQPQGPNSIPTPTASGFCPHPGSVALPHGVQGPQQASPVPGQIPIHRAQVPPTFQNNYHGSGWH
UniProt Q15053: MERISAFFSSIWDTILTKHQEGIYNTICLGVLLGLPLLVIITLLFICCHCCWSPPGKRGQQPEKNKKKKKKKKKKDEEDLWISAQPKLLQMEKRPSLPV
UniProt Q6TDP4, whole entry, looked up: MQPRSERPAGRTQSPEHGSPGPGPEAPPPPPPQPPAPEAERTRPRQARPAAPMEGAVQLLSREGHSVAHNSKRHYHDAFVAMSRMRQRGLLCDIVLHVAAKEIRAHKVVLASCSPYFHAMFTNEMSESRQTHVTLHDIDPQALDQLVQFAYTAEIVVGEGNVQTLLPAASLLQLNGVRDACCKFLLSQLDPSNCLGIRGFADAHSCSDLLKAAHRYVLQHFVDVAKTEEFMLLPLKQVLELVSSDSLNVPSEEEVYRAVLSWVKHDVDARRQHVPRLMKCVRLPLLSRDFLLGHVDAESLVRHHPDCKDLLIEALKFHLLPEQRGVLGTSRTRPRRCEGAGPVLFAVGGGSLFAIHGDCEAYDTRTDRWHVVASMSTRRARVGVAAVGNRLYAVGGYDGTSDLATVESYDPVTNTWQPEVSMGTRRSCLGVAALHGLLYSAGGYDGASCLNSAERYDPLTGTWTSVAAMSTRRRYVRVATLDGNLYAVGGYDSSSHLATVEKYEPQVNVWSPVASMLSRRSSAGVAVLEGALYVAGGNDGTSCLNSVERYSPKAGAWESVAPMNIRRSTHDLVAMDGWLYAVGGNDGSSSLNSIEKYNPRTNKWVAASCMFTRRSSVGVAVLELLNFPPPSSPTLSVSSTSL
UniProt Q9NZM3: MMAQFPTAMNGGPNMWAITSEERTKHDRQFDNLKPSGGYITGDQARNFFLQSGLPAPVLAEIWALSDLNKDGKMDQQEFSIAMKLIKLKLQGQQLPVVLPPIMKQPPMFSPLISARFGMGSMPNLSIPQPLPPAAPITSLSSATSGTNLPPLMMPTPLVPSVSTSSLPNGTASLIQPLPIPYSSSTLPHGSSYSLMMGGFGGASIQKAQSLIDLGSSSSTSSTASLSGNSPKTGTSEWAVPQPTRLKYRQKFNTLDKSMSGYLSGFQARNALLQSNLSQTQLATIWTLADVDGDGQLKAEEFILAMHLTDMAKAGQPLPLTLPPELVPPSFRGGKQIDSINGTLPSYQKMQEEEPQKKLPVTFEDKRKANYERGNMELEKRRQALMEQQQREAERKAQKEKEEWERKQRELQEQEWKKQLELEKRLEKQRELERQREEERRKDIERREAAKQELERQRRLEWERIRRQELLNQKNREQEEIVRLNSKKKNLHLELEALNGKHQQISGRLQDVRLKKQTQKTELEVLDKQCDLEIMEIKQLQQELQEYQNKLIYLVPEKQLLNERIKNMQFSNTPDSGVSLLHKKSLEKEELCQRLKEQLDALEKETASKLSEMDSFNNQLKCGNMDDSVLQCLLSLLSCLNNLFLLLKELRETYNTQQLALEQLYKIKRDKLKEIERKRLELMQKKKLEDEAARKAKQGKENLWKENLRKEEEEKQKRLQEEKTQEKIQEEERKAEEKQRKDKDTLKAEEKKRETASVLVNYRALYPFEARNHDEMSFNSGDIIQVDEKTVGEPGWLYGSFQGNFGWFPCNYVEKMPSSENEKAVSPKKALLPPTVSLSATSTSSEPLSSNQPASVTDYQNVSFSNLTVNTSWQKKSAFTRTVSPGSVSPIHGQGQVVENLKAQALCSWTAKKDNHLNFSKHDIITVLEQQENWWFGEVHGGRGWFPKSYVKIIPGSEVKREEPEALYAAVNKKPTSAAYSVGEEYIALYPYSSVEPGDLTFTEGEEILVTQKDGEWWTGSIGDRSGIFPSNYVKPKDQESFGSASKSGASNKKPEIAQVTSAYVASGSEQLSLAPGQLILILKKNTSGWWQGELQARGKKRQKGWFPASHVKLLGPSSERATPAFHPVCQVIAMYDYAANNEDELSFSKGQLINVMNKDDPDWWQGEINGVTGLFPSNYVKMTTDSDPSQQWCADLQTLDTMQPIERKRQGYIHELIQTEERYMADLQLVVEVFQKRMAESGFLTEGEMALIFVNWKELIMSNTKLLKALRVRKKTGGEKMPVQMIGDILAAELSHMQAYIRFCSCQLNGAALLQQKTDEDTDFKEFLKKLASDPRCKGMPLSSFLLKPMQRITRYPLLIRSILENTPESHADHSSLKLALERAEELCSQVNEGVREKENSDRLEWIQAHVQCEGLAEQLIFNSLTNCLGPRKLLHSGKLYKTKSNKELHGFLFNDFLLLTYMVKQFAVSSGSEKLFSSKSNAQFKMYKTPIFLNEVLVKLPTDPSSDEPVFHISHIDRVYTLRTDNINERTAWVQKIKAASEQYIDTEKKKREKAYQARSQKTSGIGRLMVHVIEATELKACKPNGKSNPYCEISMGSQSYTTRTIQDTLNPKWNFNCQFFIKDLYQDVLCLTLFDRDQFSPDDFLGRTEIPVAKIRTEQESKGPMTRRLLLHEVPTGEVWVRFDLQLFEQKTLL
UniProt Q96L93: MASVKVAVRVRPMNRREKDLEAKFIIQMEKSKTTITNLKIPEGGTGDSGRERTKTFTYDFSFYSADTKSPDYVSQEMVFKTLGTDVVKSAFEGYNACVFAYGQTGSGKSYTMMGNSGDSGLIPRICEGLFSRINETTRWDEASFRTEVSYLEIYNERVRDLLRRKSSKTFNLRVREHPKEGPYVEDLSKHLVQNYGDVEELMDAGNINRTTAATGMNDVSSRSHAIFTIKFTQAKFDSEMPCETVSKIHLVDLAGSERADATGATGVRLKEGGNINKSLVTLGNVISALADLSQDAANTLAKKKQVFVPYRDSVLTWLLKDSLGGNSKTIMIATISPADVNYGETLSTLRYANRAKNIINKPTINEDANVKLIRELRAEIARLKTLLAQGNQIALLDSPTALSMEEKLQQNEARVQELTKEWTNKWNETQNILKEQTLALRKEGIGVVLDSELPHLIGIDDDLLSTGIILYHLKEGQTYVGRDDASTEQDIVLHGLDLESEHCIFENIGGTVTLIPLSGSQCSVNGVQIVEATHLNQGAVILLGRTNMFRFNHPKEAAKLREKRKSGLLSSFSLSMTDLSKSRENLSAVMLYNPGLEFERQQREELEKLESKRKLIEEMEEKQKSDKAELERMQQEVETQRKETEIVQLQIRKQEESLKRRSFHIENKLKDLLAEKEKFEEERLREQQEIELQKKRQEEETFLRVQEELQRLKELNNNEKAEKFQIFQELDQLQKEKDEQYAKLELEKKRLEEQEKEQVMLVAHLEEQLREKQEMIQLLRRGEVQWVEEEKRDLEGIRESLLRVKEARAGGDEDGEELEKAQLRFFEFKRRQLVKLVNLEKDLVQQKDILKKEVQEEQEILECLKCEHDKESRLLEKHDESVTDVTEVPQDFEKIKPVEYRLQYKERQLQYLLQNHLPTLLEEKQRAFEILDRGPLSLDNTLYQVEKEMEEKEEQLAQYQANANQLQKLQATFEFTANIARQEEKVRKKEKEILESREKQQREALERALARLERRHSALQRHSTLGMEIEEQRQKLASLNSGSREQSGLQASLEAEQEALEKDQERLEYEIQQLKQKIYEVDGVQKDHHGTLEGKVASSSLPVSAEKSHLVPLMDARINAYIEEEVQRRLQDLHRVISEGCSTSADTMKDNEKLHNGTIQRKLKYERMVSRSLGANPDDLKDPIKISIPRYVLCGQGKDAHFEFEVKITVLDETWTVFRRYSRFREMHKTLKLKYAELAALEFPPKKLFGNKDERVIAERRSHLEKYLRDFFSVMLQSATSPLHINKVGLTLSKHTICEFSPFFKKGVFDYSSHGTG

What was measured:
Assay in all cases: log2 fold change, soluble protein after heating vs DMSO (PISA); higher = thermal stabilisation; K562 cells, 10 uM, 30 min; active = over 0.2 and 3.5 SD of the protein, either way, in both replicates (recomputed)
[1] = compound: COC1=CC=C(C=C1)CN2C=CC3=C2C=C(C=C3)C(=O)NO
In short: (§1)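 K562 cells at 2×10^6 cells/mL were given 10 μM compound for 30 min. Aliquots then went through 3 min of heating across 48°C-58°C, were pooled, and were extracted in PBS with 0.5% NP-40 at 4°C, and the supernatant after 21,000xg for 90 min was quantified by TMTpro 16plex LC-MS/MS with channel sums equalised. Thermal stability relative to control samples, from duplicates, is given as log2 fold change.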

zotarolimus = compound: CO[C@H]1C[C@@H]2CC[C@@H](C)[C@@](O)(O2)C(=O)C(=O)N2CCCC[C@H]2C(=O)O[C@H]([C@H](C)C[C@@H]2CC[C@H](n3cnnn3)[C@H](OC)C2)CC(=O)[C@H](C)/C=C(\C)[C@@H](O)[C@@H](OC)C(=O)[C@H](C)C[C@H](C)/C=C/C=C/C=C/1C [zotarolimus]
In short: as §1

crizotinib = compound: C[C@@H](Oc1cc(-c2cnn(C3CCNCC3)c2)cnc1N)c1c(Cl)ccc(F)c1Cl [crizotinib]
In short: as §1

[2] = compound: C[C@H](C1=CC=C(C=C1)C(=O)NC2=C3C=CNC3=NC=C2)N
In short: as §1

duvelisib = compound: C[C@H](Nc1ncnc2nc[nH]c12)c1cc2cccc(Cl)c2c(=O)n1-c1ccccc1 [duvelisib]
In short: as §1

[3] = compound: Cc1cc(SCc2sc(-c3ccc(C(F)(F)F)cc3)nc2C)ccc1OCC(=O)O
In short: as §1

doramapimod = compound: Cc1ccc(-n2nc(C(C)(C)C)cc2NC(=O)Nc2ccc(OCCN3CCOCC3)c3ccccc23)cc1 [doramapimod]
In short: as §1

ispinesib = compound: Cc1ccc(C(=O)N(CCCN)[C@@H](c2nc3cc(Cl)ccc3c(=O)n2Cc2ccccc2)C(C)C)cc1 [ispinesib]
In short: as §1

filanesib = compound: CON(C)C(=O)N1N=C(c2cc(F)ccc2F)S[C@@]1(CCCN)c1ccccc1 [filanesib]
In short: as §1

alisertib = compound: COc1cc(Nc2ncc3c(n2)-c2ccc(Cl)cc2C(c2c(F)cccc2OC)=NC3)ccc1C(=O)O [alisertib]
In short: as §1

[4] = compound: COc1cc2nc(-c3cc(F)ccc3O)nc(N[C@@H]3CNC[C@H]3C(C)(C)O)c2cc1OC
In short: as §1

gefitinib = compound: COc1cc2ncnc(Nc3ccc(F)c(Cl)c3)c2cc1OCCCN1CCOCC1 [gefitinib]
In short: as §1

[5] = compound: COc1cccc2cc(-c3nc([C@H]4CC[C@H](C(=O)O)CC4)n4ncnc(N)c34)[nH]c12
In short: as §1

lapatinib = compound: CS(=O)(=O)CCNCc1ccc(-c2ccc3ncnc(Nc4ccc(OCc5cccc(F)c5)c(Cl)c4)c3c2)o1 [lapatinib]
In short: as §1

[6] = compound: CS(=O)(=O)c1ccc(-c2cnc(N)c(C(=O)Nc3ccccc3)n2)cc1
In short: as §1

tozasertib = compound: Cc1cc(Nc2cc(N3CCN(C)CC3)nc(Sc3ccc(NC(=O)C4CC4)cc3)n2)n[nH]1 [tozasertib]
In short: as §1

pictilisib = compound: CS(=O)(=O)N1CCN(Cc2cc3nc(-c4cccc5[nH]ncc45)nc(N4CCOCC4)c3s2)CC1 [pictilisib]
In short: as §1

[7] = compound: C[C@@H]1COCCN1C2=NC(=NC(=C2)C3(CC3)S(=O)(=O)C)C4=C5C=CNC5=CC=C4
In short: as §1

gandotinib = compound: Cc1cc(Nc2cc(CN3CCOCC3)c3nc(C)c(Cc4ccc(Cl)cc4F)n3n2)n[nH]1 [gandotinib]
In short: as §1

idasanutlin = compound: COc1cc(C(=O)O)ccc1NC(=O)[C@@H]1N[C@@H](CC(C)(C)C)[C@](C#N)(c2ccc(Cl)cc2F)[C@H]1c1cccc(Cl)c1F [idasanutlin]
In short: as §1

Measured: log2 fold change

KDF1 (UniProt Q8NAX2)
inactive: [1] 0.011 | zotarolimus -0.182 | crizotinib 0.004 | [2] 0.005 | duvelisib 0.133 | [3] -0.238 | doramapimod -0.014 | ispinesib 0.121

KIF26A (UniProt Q9ULI4)
inactive: [1] 0.002 | filanesib 0.018 | alisertib -0.024 | [4] -0.021 | gefitinib 0.043 | [5] 0.024 | lapatinib 0.004 | [6] 0.053 | crizotinib 0.155 | doramapimod 0.035 | ispinesib -0.023

KLC3 isoform 3 (UniProt Q6P597)
inactive: filanesib 0.246 | [4] 0.136 | lapatinib -0.097 | [6] 0.083 | tozasertib 0.062

KISS1R (UniProt Q969F8)
inactive: [1] -0.032 | filanesib 0.066 | alisertib -0.187 | [4] 0.065 | [5] 0.06 | lapatinib -0.099 | pictilisib -0.252 | [6] -0.128 | crizotinib 0.144 | [7] 0.071 | duvelisib 0.366 | gandotinib -0.123 | tozasertib -0.121 | [3] 0.165 | doramapimod -0.062 | ispinesib 0.02

KDELR1 (UniProt P24390)
inactive: [1] -0.112 | filanesib 0.008 | alisertib -0.02 | [4] -0.114 | gefitinib -0.182 | [5] -0.017 | lapatinib -0.02 | [6] 0.126 | crizotinib 0.063 | [7] 0.222 | duvelisib -0.044 | tozasertib 0.441 | [3] -0.026 | doramapimod -0.055 | ispinesib 0.066

KMT2C isoform 3 (UniProt Q8NEZ4)
inactive: filanesib 0.029 | zotarolimus -0.028 | idasanutlin 0.012 | alisertib -0.028 | gefitinib 0.058 | [5] -0.027 | pictilisib 0.229 | [6] 0.013 | [7] 0.021 | [2] 0.022 | gandotinib -0.106 | [3] -0.048 | ispinesib -0.235

KIZ (UniProt Q2M2Z5)
inactive: [1] -0.008 | zotarolimus 0.269 | idasanutlin -0.019 | [4] -0.064 | lapatinib 0.066 | pictilisib -0.215 | crizotinib -0.032 | [2] -0.115 | gandotinib 0.063 | doramapimod 0.071 | ispinesib -0.047

KCTD1 (UniProt Q719H9)
inactive: [1] 0.054 | gefitinib 0.054 | crizotinib 0.136 | [7] 0.122 | duvelisib 0.323 | tozasertib 0.075 | [3] -0.068 | doramapimod 0.066

KRR1 (UniProt Q13601)
inactive: [1] -0.135 | pictilisib 0.02 | crizotinib -0.182 | gandotinib 0.028 | doramapimod 0.127

JUN (UniProt P05412)
inactive: filanesib 0.278 | zotarolimus -0.017 | alisertib -0.409 | gefitinib -0.037 | [5] 0.082 | [6] 0.141 | [2] -0.049 | tozasertib 0.043 | ispinesib -0.046

KPTN (UniProt Q9Y664)
inactive: [1] 0.049 | zotarolimus 0.099 | idasanutlin -0.128 | alisertib -0.087 | [4] 0.098 | gefitinib 0.06 | [5] -0.009 | lapatinib 0.128 | pictilisib 0.015 | crizotinib -0.112 | [7] 0.276 | [2] -0.055 | duvelisib -0.006 | gandotinib -0.033 | tozasertib -0.078 | [3] 0.036 | doramapimod -0.016 | ispinesib 0.042

KHSRP (UniProt M0R3J3)
inactive: [7] 0.33

JOSD1 (UniProt Q15040)
inactive: zotarolimus -0.038 | idasanutlin -0.062 | [7] 0.079 | [2] -0.117 | duvelisib 0.168 | [3] 0.042

KIF1B isoform 3 (UniProt O60333)
inactive: alisertib 0.251 | [5] -0.037

KIF21A (UniProt H0YI78)
inactive: ispinesib -0.041

KIFC1 (UniProt Q9BW19)
inactive: zotarolimus 0.068 | idasanutlin 0.235 | alisertib -0.027 | [5] -0.317 | pictilisib 0.121 | [7] 0 | [2] 0.298 | gandotinib 0.027 | ispinesib -0.046

Retrieved one by one from the entries so far (two):
JUN (UniProt P05412)
inactive: filanesib 0.278 | zotarolimus -0.017 | alisertib -0.409 | gefitinib -0.037 | [5] 0.082 | [6] 0.141 | [2] -0.049 | tozasertib 0.043 | ispinesib -0.046

KHSRP (UniProt M0R3J3)
inactive: [7] 0.33

Next part:

KALRN (UniProt O60229)
inactive: zotarolimus 0.105 | gefitinib -0.049 | [7] 0.217 | [2] -0.03

JCHAIN (UniProt P01591)
inactive: alisertib 0.436 | gefitinib 0.407 | [5] -0.199

KIF4A (UniProt O95239)
inactive: zotarolimus -0.037 | pictilisib -0.013 | [2] 0.188 | duvelisib 0.265 | gandotinib 0.031 | tozasertib 0.188 | [3] 0.269

KSR2 (UniProt Q6VAB6)
inactive: filanesib 0.281 | pictilisib 0.185 | [6] 0.177 | [7] -0.041 | gandotinib 0.014

KIF21B (UniProt O75037)
inactive: gefitinib -0.066 | [7] 0 | duvelisib -0.074 | [3] -0.175 | ispinesib -0.32

KLHL36 (UniProt Q8N4N3)
inactive: alisertib -0.036 | gefitinib 0.333 | [5] 0.036 | [7] 0.245

KLHDC10 (UniProt Q6PID8)
inactive: [4] 0.116 | lapatinib 0.108 | pictilisib -0.034 | gandotinib -0.036 | tozasertib 0.033

KDM2B (UniProt Q8NHM5)
inactive: filanesib 0.043 | [6] 0.06

KIAA0754 (UniProt O94854)
inactive: zotarolimus 0.041 | [4] 0.144 | lapatinib 0.2 | [7] 0.078 | [2] 0.121 | duvelisib 0.185 | tozasertib 0.006 | [3] -0.133 | ispinesib -0.284

KMT2E (UniProt Q8IZD2)
inactive: zotarolimus 0.047 | [7] 0.179 | [2] 0.171 | duvelisib 0.045 | [3] 0.072

KMT5A (UniProt Q9NQR1)
inactive: pictilisib 0.368 | [6] 0.018 | gandotinib 0.038
active: filanesib 0.976

KDM3A (UniProt Q9Y4C1)
inactive: zotarolimus -0.222 | pictilisib -0.02 | [2] -0.073 | gandotinib -0.103

KIF20B isoform 2 (UniProt Q96Q89)
inactive: pictilisib 0.007 | gandotinib 0.12 | ispinesib -0.013

KIAA0040 (UniProt Q15053)
inactive: zotarolimus -0.124 | idasanutlin 0.101 | alisertib -0.024 | gefitinib -0.003 | [5] 0.075 | [2] 0.166

KLHL17 (UniProt Q6TDP4)
inactive: [7] -0.021

ITSN2 (UniProt Q9NZM3)
inactive: pictilisib 0.032 | gandotinib 0.225

KLC1 isoform 3 (UniProt Q07866)
inactive: idasanutlin -0.044

KLHDC2 (UniProt Q9Y2U9)
inactive: gefitinib 0.057

KIF20A (UniProt O95235)
inactive: idasanutlin 0.09 | [7] 0.104

KIN (UniProt O60870)
inactive: filanesib 0.142 | pictilisib 0.003 | [6] 0.019 | gandotinib 0.055

KIF16B isoform 2 (UniProt Q96L93)
inactive: zotarolimus -0.054 | idasanutlin 0.138 | [2] 0.187 | duvelisib 0.084 | [3] -0.1 | ispinesib -0.053

KCTD7 (UniProt Q96MP8)
inactive: alisertib -0.291 | [4] -0.008 | gefitinib -0.271 | [5] 0.052 | lapatinib 0.096 | pictilisib 0.192 | duvelisib 0 | gandotinib -0.225 | [3] -0.055

KRT10, A0A1B0GVI3
inactive: alisertib 1.9 | gefitinib 0.029 | [5] -0.079 | pictilisib 0.002 | gandotinib -0.098

KLHL20 (UniProt Q9Y2M5)
inactive: idasanutlin 0.119 | alisertib -0.038 | [4] 0.007 | gefitinib 0.068 | [5] 0.063 | lapatinib 0.026 | pictilisib -0.025 | duvelisib -0.47 | gandotinib -0.113 | tozasertib 0.125 | [3] 0.173 | ispinesib 0.039

KDM6A (UniProt O15550)
inactive: zotarolimus 0.272 | idasanutlin 0.093 | [4] 0.169 | lapatinib 0.034 | [7] 0.269 | [2] -0.031 | duvelisib 0.047 | [3] 0.207 | ispinesib -0.146
